The supplement of paper PMC10849652
This is one part of the list.

The chains behind the UniProt entries cited, without tags or fusion partners. Where a name states a change or a piece, a line headed by the entry shows the natural chain unless it says otherwise.
UniProt P27540, whole entry, looked up: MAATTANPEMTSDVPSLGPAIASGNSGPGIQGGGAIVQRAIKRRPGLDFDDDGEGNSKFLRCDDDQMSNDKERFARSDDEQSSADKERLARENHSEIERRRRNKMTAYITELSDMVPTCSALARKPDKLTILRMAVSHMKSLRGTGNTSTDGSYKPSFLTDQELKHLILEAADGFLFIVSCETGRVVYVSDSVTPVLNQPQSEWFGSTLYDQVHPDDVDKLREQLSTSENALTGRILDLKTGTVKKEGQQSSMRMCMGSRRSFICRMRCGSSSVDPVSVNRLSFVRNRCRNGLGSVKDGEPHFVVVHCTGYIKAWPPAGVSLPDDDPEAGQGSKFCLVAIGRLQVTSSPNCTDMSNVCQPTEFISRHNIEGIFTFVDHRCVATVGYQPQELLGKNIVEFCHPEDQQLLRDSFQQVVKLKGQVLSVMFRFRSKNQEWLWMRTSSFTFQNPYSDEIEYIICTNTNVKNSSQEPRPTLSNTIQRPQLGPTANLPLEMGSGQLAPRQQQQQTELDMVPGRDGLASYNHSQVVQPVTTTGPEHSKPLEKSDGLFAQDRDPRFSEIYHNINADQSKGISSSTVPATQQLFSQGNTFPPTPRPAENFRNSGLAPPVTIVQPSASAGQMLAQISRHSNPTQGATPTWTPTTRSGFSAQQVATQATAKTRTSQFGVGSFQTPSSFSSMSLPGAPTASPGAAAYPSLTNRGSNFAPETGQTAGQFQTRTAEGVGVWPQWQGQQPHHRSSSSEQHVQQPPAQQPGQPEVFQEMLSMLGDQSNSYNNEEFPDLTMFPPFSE
UniProt O75348, whole entry, looked up: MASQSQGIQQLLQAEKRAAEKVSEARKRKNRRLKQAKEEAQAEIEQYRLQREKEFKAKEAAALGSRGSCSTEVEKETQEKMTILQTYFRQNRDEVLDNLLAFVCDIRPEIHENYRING
UniProt P49407: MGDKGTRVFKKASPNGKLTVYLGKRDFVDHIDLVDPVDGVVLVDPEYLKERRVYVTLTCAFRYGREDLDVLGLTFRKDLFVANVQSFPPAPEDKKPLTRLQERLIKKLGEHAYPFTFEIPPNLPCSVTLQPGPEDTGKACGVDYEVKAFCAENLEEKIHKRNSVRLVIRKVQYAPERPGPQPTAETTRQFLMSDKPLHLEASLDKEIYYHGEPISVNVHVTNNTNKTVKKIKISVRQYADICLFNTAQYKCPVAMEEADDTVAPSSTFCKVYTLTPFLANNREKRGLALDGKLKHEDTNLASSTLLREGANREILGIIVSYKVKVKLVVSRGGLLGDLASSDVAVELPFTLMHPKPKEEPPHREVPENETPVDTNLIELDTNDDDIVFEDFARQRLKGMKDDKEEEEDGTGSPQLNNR
UniProt Q9UH62: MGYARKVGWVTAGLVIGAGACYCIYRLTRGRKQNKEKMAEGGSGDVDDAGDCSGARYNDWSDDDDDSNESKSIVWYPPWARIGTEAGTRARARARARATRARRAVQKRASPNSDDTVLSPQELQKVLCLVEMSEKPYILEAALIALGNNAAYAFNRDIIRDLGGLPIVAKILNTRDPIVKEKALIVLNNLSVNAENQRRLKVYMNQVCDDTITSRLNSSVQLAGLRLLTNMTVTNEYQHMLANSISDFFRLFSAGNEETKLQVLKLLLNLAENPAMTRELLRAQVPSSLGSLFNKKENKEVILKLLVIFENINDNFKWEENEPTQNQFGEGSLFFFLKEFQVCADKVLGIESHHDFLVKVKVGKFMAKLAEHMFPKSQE
UniProt Q6P4H8: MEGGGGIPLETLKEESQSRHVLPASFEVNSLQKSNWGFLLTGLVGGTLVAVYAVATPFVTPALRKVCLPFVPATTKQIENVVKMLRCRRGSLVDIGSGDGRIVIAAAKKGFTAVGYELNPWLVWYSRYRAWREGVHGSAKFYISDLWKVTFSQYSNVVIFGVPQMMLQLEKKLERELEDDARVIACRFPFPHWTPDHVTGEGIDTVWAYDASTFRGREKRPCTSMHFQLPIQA
UniProt P36543, whole entry, looked up: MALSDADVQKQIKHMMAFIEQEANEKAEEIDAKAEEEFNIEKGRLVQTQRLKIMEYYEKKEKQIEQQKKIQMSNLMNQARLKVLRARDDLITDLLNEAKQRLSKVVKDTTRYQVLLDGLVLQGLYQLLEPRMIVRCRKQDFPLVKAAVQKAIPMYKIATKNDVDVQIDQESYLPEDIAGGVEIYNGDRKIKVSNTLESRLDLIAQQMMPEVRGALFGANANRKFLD
UniProt P56378: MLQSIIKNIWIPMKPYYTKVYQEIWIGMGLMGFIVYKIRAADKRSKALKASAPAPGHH
UniProt O95260: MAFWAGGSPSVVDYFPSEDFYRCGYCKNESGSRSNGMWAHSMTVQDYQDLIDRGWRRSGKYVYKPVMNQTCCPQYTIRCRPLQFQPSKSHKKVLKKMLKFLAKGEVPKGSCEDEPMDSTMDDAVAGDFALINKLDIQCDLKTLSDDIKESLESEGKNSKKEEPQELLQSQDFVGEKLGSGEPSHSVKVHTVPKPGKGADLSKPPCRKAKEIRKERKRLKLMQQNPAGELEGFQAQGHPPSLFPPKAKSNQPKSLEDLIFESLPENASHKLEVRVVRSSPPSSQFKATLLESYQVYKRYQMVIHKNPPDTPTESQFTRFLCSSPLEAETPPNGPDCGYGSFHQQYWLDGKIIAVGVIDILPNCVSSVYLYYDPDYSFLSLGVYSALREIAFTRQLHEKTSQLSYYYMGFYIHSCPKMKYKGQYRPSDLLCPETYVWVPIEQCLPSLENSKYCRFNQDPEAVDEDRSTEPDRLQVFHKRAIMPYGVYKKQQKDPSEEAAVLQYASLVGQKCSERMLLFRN
UniProt Q96BM9: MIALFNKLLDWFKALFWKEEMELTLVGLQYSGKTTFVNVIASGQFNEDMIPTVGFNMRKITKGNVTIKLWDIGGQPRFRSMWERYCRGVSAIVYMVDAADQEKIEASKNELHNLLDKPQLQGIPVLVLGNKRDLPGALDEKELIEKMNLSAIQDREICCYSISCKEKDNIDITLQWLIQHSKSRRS
UniProt L0R819, whole entry, looked up: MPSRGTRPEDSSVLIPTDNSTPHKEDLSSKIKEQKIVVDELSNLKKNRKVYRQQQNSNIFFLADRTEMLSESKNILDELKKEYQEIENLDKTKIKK
UniProt O95352: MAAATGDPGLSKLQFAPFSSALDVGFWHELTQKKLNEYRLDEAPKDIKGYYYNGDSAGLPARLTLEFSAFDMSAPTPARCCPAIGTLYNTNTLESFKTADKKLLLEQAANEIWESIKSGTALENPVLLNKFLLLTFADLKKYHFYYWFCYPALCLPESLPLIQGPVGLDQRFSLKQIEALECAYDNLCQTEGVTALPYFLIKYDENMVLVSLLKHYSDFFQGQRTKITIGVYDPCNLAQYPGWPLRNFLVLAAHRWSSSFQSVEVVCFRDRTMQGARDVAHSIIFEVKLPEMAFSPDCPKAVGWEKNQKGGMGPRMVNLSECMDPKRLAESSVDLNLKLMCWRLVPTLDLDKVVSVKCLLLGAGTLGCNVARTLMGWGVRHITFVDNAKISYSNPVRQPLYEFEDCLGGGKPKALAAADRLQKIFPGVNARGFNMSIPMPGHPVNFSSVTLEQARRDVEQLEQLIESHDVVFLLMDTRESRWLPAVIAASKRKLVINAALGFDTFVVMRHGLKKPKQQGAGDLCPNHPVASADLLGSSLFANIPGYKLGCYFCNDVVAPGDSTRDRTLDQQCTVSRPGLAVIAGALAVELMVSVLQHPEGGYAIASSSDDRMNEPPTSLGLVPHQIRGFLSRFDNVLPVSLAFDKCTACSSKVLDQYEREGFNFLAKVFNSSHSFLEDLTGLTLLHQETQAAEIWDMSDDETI
UniProt P36404: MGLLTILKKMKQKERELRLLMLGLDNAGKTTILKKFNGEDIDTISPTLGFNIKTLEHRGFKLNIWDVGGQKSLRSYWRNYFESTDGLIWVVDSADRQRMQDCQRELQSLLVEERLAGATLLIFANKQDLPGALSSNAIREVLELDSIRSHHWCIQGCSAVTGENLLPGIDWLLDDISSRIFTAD
UniProt Q6NXE6: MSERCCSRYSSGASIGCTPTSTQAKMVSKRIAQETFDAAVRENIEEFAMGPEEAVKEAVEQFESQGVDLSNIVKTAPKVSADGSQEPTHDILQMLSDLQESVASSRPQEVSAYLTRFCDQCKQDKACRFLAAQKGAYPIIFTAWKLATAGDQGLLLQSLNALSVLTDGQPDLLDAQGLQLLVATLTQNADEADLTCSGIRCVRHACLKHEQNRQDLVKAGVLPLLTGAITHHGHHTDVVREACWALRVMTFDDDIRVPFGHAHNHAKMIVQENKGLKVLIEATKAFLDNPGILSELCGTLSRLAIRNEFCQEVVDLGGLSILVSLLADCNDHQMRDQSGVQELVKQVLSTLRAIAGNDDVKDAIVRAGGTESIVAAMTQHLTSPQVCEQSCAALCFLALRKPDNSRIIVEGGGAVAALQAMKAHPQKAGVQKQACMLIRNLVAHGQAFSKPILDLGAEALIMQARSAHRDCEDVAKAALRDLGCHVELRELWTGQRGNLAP
UniProt P36542: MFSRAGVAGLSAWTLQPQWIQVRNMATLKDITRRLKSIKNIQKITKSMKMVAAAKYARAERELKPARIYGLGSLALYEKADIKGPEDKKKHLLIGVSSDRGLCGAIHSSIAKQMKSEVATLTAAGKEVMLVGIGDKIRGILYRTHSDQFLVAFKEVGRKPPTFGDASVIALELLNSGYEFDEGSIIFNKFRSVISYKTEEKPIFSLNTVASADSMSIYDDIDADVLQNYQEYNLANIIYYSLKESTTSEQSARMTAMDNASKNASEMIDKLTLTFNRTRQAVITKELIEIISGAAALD
UniProt P15848: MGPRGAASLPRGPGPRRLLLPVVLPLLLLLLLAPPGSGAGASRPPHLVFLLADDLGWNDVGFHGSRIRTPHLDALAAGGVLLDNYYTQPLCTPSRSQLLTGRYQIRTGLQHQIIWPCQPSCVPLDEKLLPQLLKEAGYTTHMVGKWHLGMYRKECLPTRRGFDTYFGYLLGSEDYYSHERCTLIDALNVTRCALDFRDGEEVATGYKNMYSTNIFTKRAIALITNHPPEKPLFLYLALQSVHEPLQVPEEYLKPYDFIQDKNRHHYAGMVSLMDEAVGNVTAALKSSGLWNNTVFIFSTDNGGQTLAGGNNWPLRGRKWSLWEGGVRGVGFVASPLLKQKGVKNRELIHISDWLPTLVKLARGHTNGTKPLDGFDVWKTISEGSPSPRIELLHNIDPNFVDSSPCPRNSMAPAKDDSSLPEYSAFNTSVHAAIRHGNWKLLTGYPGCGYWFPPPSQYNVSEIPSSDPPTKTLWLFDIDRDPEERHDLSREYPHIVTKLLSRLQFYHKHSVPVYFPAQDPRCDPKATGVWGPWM
UniProt Q9BSB4: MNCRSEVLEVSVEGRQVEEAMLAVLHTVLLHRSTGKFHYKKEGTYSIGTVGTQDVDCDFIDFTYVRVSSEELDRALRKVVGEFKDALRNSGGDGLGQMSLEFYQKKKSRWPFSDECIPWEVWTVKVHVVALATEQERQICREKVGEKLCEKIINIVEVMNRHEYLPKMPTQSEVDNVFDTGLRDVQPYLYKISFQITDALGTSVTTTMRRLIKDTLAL
UniProt O75947: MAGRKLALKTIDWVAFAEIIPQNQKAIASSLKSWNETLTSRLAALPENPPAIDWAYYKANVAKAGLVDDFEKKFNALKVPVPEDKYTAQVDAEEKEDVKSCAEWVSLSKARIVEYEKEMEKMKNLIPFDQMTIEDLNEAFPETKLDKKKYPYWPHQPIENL
UniProt Q96DT6: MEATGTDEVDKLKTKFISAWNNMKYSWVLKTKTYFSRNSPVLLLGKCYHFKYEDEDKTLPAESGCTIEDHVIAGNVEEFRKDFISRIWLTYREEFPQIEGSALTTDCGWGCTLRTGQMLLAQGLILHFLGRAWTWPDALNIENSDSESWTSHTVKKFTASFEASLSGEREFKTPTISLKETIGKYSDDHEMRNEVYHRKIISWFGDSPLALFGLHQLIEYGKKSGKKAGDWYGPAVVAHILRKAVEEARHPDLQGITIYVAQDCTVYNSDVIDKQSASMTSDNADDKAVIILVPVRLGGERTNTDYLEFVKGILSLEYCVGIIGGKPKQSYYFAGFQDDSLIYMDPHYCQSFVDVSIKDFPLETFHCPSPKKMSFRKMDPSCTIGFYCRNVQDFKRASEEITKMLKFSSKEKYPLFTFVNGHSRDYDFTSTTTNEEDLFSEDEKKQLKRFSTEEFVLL
UniProt P21281, whole entry, looked up: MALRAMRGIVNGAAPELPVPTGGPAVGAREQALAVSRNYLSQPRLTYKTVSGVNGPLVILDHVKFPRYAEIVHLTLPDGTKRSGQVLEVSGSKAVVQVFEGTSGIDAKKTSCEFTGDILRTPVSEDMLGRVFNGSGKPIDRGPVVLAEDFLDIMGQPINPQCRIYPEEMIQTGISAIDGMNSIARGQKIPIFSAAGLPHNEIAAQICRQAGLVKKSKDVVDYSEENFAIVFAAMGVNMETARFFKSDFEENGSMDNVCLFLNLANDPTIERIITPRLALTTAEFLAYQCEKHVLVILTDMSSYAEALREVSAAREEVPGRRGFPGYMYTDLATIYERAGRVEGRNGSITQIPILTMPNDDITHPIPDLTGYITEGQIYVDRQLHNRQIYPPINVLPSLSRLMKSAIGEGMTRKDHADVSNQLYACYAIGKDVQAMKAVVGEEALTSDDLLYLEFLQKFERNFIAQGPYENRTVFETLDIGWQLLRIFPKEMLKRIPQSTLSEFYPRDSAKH

Compound: c1cn2cc(-c3ccc4cn[nH]c4c3)nc(Nc3ccc(N4CCOCC4)cc3)c2n1 [entospletinib]
Test: log2 fold change, soluble protein after heating vs DMSO (PISA); higher = thermal stabilisation; K562 cells, 10 uM, 30 min; active = over 0.2 and 3.5 SD of the protein, either way, in both replicates (recomputed)
Method in brief: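 Quantification of soluble protein used TMTpro 16plex LC-MS/MS, with channel sums equalised. Samples were the supernatant after 21,000xg for 90 min of pooled aliquots from K562 cells (2×10^6 cells/mL) treated with 10 μM compound for 30 min, heated for 3 min over 48°C-58°C, and extracted in PBS with 0.5% NP-40 at 4°C. Values, from duplicates, describe thermal stability against control samples on a log2 fold-change scale.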

log2 fold change, inactive:
ARNT (UniProt P27540) -0.202
ASCC2 (UniProt Q9H1I8) -0.034
ATP5F1B (UniProt H0YI37) 0.107
ATP6V1G1 (UniProt O75348) -0.009
ARRB1 isoform 2 (UniProt P49407) -0.01
ASCC3 (UniProt Q8N3C0) 0.035
ARMCX3 (UniProt Q9UH62) -0.036
ATPSCKMT (UniProt Q6P4H8) 0.032
ATP6V1E1 (UniProt P36543) 0.012
ATP5MPL (UniProt P56378) 0.047
ATE1 (UniProt O95260) -0.085
ARL8A (UniProt Q96BM9) -0.021
ATE1 isoform 2 (UniProt O95260) 0.104
ATF3 (UniProt P18847) -0.357
ATG5 (UniProt Q9H1Y0) 0.005
ASDURF (UniProt L0R819) 0.027
ARRB1 (UniProt P49407) -0.019
ATG7 (UniProt O95352) -0.01
ARL2 (UniProt P36404) -0.053
ARMC6 (UniProt Q6NXE6) 0.175
ASMTL (UniProt O95671) -0.019
ATP5F1C (UniProt P36542) 0.008
ASPH (UniProt Q12797) -0.004
ARPC1B (UniProt O15143) -0.038
ARL6IP1 (UniProt Q15041) 0.046
ARSB (UniProt P15848) 0.056
ATG101 (UniProt Q9BSB4) 0.028
ATP5PD (UniProt O75947) -0.011
ARPC3 (UniProt O15145) 0.096
ATP1B1 (UniProt P05026) 0.032
ATG4C (UniProt Q96DT6) 0.134
ATP6V1B2 (UniProt P21281) 0.006

2 entries drawn at random from those above, as already listed:
log2 fold change, inactive:
ARNT (UniProt P27540) -0.202
ATG4C (UniProt Q96DT6) 0.134
